Assay [1] addresses p65(wt)-HA-miniTurbo (human) (UniProt Q04206).
Assay [2] has the same target. This is another data set of the same source.
Assay [3] has the same target. This is another data set of the same source.

Sequences of proteins named here, by UniProt entry; tags and fusion partners are left off.
UniProt Q04206: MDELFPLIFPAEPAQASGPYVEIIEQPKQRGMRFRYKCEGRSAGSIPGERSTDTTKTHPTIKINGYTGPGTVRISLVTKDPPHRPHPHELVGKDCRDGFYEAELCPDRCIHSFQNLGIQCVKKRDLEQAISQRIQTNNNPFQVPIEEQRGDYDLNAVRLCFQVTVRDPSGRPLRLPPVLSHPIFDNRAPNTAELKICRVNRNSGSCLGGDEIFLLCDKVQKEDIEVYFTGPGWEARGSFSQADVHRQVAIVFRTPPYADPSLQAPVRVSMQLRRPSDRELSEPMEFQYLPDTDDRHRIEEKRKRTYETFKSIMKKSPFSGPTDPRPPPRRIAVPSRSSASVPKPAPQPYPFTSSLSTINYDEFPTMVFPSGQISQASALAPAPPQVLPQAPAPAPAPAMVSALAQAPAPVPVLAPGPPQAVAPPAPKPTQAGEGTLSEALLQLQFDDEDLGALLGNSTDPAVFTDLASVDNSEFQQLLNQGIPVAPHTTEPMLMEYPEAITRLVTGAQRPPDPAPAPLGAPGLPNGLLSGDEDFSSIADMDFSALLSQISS

Read-outs that look alike come from different tables or passages of the source. These are yes or no findings as the source states them, for the method shown. In cells and extracts the contact can be indirect. These calls come from enrichment with a bait or labelling near it, and not all partners need be listed.

B1: p52 (NFKB2) (protein, UniProt Q00653 1-454)
chain: MESCYNPGLDGIIEYDDFKLNSSIVEPKEPAPETADGPYLVIVEQPKQRGFRFRYGCEGPSHGGLPGASSEKGRKTYPTVKICNYEGPAKIEVDLVTHSDPPRAHAHSLVGKQCSELGICAVSVGPKDMTAQFNNLGVLHVTKKNMMGTMIQKLQRQRLRSRPQGLTEAEQRELEQEAKELKKVMDLSIVRLRFSAFLRASDGSFSLPLKPVISQPIHDSKSPGASNLKISRMDKTAGSVRGGDEVYLLCDKVQKDDIEVRFYEDDENGWQAFGDFSPTDVHKQYAIVFRTPPYHKMKIERPVTVFLQLKRKRGGDVSDSKQFTYYPLVEDKEEVQRKRRKALPTFSQPFGGGSHMGGGSGGAAGGYGGAGGGGSLGFFPSSLAYSPYQSGAGPMGCYPGGGGGAQMAATVPSRDSGEEAAEPSAPSRTPQCEPQAPEMLQRAREYNARLFGLA
Consider B1, for which, in assay [1], the binding result is listed as “binds”.

B2: ATF2 (protein, UniProt P15336 1-505)
chain: MKFKLHVNSARQYKDLWNMSDDKPFLCTAPGCGQRFTNEDHLAVHKHKHEMTLKFGPARNDSVIVADQTPTPTRFLKNCEEVGLFNELASPFENEFKKASEDDIKKMPLDLSPLATPIIRSKIEEPSVVETTHQDSPLPHPESTTSDEKEVPLAQTAQPTSAIVRPASLQVPNVLLTSSDSSVIIQQAVPSPTSSTVITQAPSSNRPIVPVPGPFPLLLHLPNGQTMPVAIPASITSSNVHVPAAVPLVRPVTMVPSVPGIPGPSSPQPVQSEAKMRLKAALTQQHPPVTNGDTVKGHGSGLVRTQSEESRPQSLQQPATSTTETPASPAHTTPQTQSTSGRRRRAANEDPDEKRRKFLERNRAAASRCRQKRKVWVQSLEKKAEDLSSLNGQLQSEVTLLRNEVAQLKQLLLAHKDCPVTAMQKKSGYHTADKDDSSEDISVPSSPHTEAIQHSSVSTSNGVSSTSKAEAVATSVLTQMADQSTEPALSQIVMAPSSQSQPSGS
Turning to B2, the binding entry in assay [2] was “binds”.

B3: N4BP3 (protein, UniProt O15049 1-544)
chain: MATAPGPAGIAMGSVGSLLERQDFSPEELRAALAGSRGSRQPDGLLRKGLGQREFLSYLHLPKKDSKSTKNTKRAPRNEPADYATLYYREHSRAGDFSKTSLPERGRFDKCRIRPSVFKPTAGNGKGFLSMQSLASHKGQKLWRSNGSLHTLACHPPLSPGPRASQARAQLLHALSLDEGGPEPEPSLSDSSSGGSFGRSPGTGPSPFSSSLGHLNHLGGSLDRASQGPKEAGPPAVLSCLPEPPPPYEFSCSSAEEMGAVLPETCEELKRGLGDEDGSNPFTQVLEERQRLWLAELKRLYVERLHEVTQKAERSERNLQLQLFMAQQEQRRLRKELRAQQGLAPEPRAPGTLPEADPSARPEEEARWEVCQKTAEISLLKQQLREAQAELAQKLAEIFSLKTQLRGSRAQAQAQDAELVRLREAVRSLQEQAPREEAPGSCETDDCKSRGLLGEAGGSEARDSAEQLRAELLQERLRGQEQALRFEQERRTWQEEKERVLRYQREIQGGYMDMYRRNQALEQELRALREPPTPWSPRLESSKI
With B3, in assay [3], the binding result is reported as “binds”.

Source of the values: article PMC11850942.
